# According to the supplement of paper PMC8728848:
# The other results are listed elsewhere or left out.
# B1: Wzz (Escherichia coli) (protein)
# chain: MRTWKFPSVRVMMRVENNNVSGQNHDPEQIDLIDLLVQLWRGKMTIIISVIVAIVLAIGYLAVAKEKWTSTAIITQPDVGQIAGYNNAMNVIYGQAAPKVSDLQETLIGRFSSAFSALAETLDNQEEPEKLTIEPSVKNQQLPLTVSYVGQTAEGAQMKLAQYIQQVDDKVNQELEKDLKDNIALGRKNLQDSLRTQEVVAQEQKDLRIRQIQEALQYANQAQVTKPQIQQTGEDITQDTLFLLGSEALESMIKHEATRPLVFSSNYYQTRQNLLDIDNLDVDKLDIHAYLYVMKPTLPIRRDSPKKAITLILAVLLGGMVGAGIVLGRNALRNYNAK
# Columns and labels:
# Experiment in all cases: glycan array binding signal (z-score within array); higher = stronger binding
# Conditions in all cases: glycan notation: IUPAC condensed, linker removed
# [1] = target: Man(a1-2)Man(a1-3)[Man(a1-2)Man(a1-6)]Man(a1-6)[Man(a1-2)Man(a1-2)Man(a1-3)]Man
# Method in brief: (§1)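 Negative Z-scores can be read as non-binding. The Z-score is calculated within each array and then averaged across arrays of one protein sequence at different concentrations or buffers and across linkers. Arrays, 3228 in all, were curated from the Consortium for Functional Glycomics database and kept only where the protein sequence was available.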
# [2] = target: Man(a1-2)Man(a1-3)[Man(a1-2)Man(a1-6)]Man(a1-6)[Man(a1-2)Man(a1-2)Man(a1-3)]Man(b1-4)GlcNAc(b1-4)GlcNAc
# Method in brief: as §1
# [3] = target: Man(a1-2)Man(a1-3)[Man(a1-6)]Man(a1-6)[Man(a1-2)Man(a1-3)]Man(b1-4)GlcNAc(b1-4)GlcNAc
# Method in brief: as §1
# [4] = target: Man(a1-2)Man(a1-6)[Man(a1-3)]Man(a1-6)[Man(a1-2)Man(a1-2)Man(a1-3)]Man
# Method in brief: as §1
# [5] = target: Man(a1-2)Man(a1-6)[Man(a1-3)]Man(a1-6)[Man(a1-2)Man(a1-2)Man(a1-3)]Man(b1-4)GlcNAc(b1-4)GlcNAc
# Method in brief: as §1
# Man(a1-3)[Man(a1-6)]Man = target: Man(a1-3)[Man(a1-6)]Man
# Method in brief: as §1
# [6] = target: Man(a1-3)[Man(a1-6)]Man(a1-6)[Man(a1-2)Man(a1-3)]Man(b1-4)GlcNAc(b1-4)GlcNAc
# Method in brief: as §1
# [7] = target: Man(a1-3)[Man(a1-6)]Man(a1-6)[Man(a1-3)]Man
# Method in brief: as §1
# [8] = target: Man(a1-3)[Man(a1-6)]Man(a1-6)[Man(a1-3)]Man(b1-4)GlcNAc(b1-4)GlcNAc
# Method in brief: as §1
# [9] = target: Man(a1-3)[Man(a1-6)]Man(b1-4)GlcNAc(b1-4)GlcNAc
# Method in brief: as §1
# [10] = target: Man(a1-3)[Man(a1-6)]Man(b1-4)GlcNAc(b1-4)[Fuc(a1-6)]GlcNAc
# Method in brief: as §1
# Man(a1-6)Man = target: Man(a1-6)Man
# Method in brief: as §1
# Man(b1-4)GlcNAc = target: Man(b1-4)GlcNAc
# Method in brief: as §1
# MurNAc(b1-4)GlcNAc = target: MurNAc(b1-4)GlcNAc
# Method in brief: as §1
# Neu5Ac(a2-3)Gal = target: Neu5Ac(a2-3)Gal
# Method in brief: as §1
# [11] = target: Neu5Ac(a2-3)Gal(b1-3)GalNAc
# Method in brief: as §1
# [12] = target: Neu5Ac(a2-3)Gal(b1-3)GalNAc(b1-3)Gal(a1-4)Gal(b1-4)Glc
# Method in brief: as §1
# [13] = target: Neu5Ac(a2-3)Gal(b1-3)GalNAc(b1-4)Gal(b1-4)Glc
# Method in brief: as §1
# [14] = target: Neu5Ac(a2-3)Gal(b1-3)GalNAc(b1-4)[Neu5Ac(a2-3)]Gal(b1-4)Glc
# Method in brief: as §1
# [15] = target: Neu5Ac(a2-3)Gal(b1-3)GalNAc(b1-4)[Neu5Ac(a2-8)Neu5Ac(a2-3)]Gal(b1-4)Glc
# Method in brief: as §1
# [16] = target: Neu5Ac(a2-3)Gal(b1-3)GalNAc6S
# Method in brief: as §1
# [17] = target: Neu5Ac(a2-3)Gal(b1-3)GlcNAc
# Method in brief: as §1
# [18] = target: Neu5Ac(a2-3)Gal(b1-3)GlcNAc(b1-2)Man
# Method in brief: as §1
# [19] = target: Neu5Ac(a2-3)Gal(b1-3)GlcNAc(b1-2)Man(a1-3)[GlcNAc(b1-4)][Neu5Ac(a2-3)Gal(b1-3)GlcNAc(b1-2)Man(a1-6)]Man(b1-4)GlcNAc(b1-4)GlcNAc
# Method in brief: as §1
# [20] = target: Neu5Ac(a2-3)Gal(b1-3)GlcNAc(b1-2)Man(a1-3)[Neu5Ac(a2-3)Gal(b1-3)GlcNAc(b1-2)Man(a1-6)]Man(b1-4)GlcNAc(b1-4)GlcNAc
# Method in brief: as §1
# [21] = target: Neu5Ac(a2-3)Gal(b1-3)GlcNAc(b1-2)[Neu5Ac(a2-3)Gal(b1-3)GlcNAc(b1-4)]Man(a1-6)[Neu5Ac(a2-3)Gal(b1-3)GlcNAc(b1-2)Man(a1-3)]Man(b1-4)GlcNAc(b1-4)GlcNAc
# Method in brief: as §1
# [22] = target: Neu5Ac(a2-3)Gal(b1-3)GlcNAc(b1-3)Gal(b1-3)GlcNAc
# Method in brief: as §1
# [23] = target: Neu5Ac(a2-3)Gal(b1-3)GlcNAc(b1-3)Gal(b1-4)GlcNAc
# Method in brief: as §1
# [24] = target: Neu5Ac(a2-3)Gal(b1-3)GlcNAc(b1-3)GalNAc
# Method in brief: as §1
# [25] = target: Neu5Ac(a2-3)Gal(b1-3)GlcNAc(b1-6)GalNAc
# Method in brief: as §1
# [26] = target: Neu5Ac(a2-3)Gal(b1-3)GlcNAc6S
# Method in brief: as §1
# [27] = target: Neu5Ac(a2-3)Gal(b1-3)[Fuc(a1-4)]GlcNAc
# Method in brief: as §1
# [28] = target: Neu5Ac(a2-3)Gal(b1-3)[Fuc(a1-4)]GlcNAc(b1-3)Gal(b1-3)[Fuc(a1-4)]GlcNAc
# Method in brief: as §1
# [29] = target: Neu5Ac(a2-3)Gal(b1-3)[Fuc(a1-4)]GlcNAc(b1-3)Gal(b1-4)[Fuc(a1-3)]GlcNAc
# Method in brief: as §1
# [30] = target: Neu5Ac(a2-3)Gal(b1-3)[GlcNAc(b1-6)]GalNAc
# Method in brief: as §1
# [31] = target: Neu5Ac(a2-3)Gal(b1-3)[Neu5Ac(a2-6)]GalNAc
# Method in brief: as §1
# [32] = target: Neu5Ac(a2-3)Gal(b1-3)[Neu5Ac(a2-6)]GlcNAc(b1-3)[Fuc(a1-3)[Gal(b1-4)]GlcNAc(b1-6)]Gal(b1-4)Glc
# Method in brief: as §1
# [33] = target: Neu5Ac(a2-3)Gal(b1-3)]Neu5Ac(a2-3)Gal(b1-4)]GlcNAc
# Method in brief: as §1
# Neu5Ac(a2-3)Gal(b1-4)Glc = target: Neu5Ac(a2-3)Gal(b1-4)Glc
# Method in brief: as §1
# [34] = target: Neu5Ac(a2-3)Gal(b1-4)GlcNAc
# Method in brief: as §1
# [35] = target: Neu5Ac(a2-3)Gal(b1-4)GlcNAc(b1-2)Man
# Method in brief: as §1
# [36] = target: Neu5Ac(a2-3)Gal(b1-4)GlcNAc(b1-2)Man(a1-3)[GlcNAc(b1-4)][Neu5Ac(a2-3)Gal(b1-4)GlcNAc(b1-2)Man(a1-6)]Man(b1-4)GlcNAc(b1-4)GlcNAc
# Method in brief: as §1
# [37] = target: Neu5Ac(a2-3)Gal(b1-4)GlcNAc(b1-2)Man(a1-3)[Neu5Ac(a2-3)Gal(b1-4)GlcNAc(b1-2)Man(a1-6)]Man(b1-4)GlcNAc(b1-4)GlcNAc
# Method in brief: as §1
# [38] = target: Neu5Ac(a2-3)Gal(b1-4)GlcNAc(b1-2)Man(a1-3)[Neu5Ac(a2-3)Gal(b1-4)GlcNAc(b1-2)Man(a1-6)]Man(b1-4)GlcNAc(b1-4)[Fuc(a1-6)]GlcNAc
# Method in brief: as §1
# [39] = target: Neu5Ac(a2-3)Gal(b1-4)GlcNAc(b1-2)Man(a1-3)[Neu5Ac(a2-6)Gal(b1-4)GlcNAc(b1-2)Man(a1-6)]Man(b1-4)GlcNAc(b1-4)GlcNAc
# Method in brief: as §1
binder,measurement,setting,value
B1,glycan array binding signal (z-score),[1],0.17
same,glycan array binding signal (z-score),[2],0.545
same,glycan array binding signal (z-score),[3],-0.091
same,glycan array binding signal (z-score),[4],-0.448
same,glycan array binding signal (z-score),[5],0.013
same,glycan array binding signal (z-score),Man(a1-3)[Man(a1-6)]Man,-0.121
same,glycan array binding signal (z-score),[6],-0.195
same,glycan array binding signal (z-score),[7],-0.03
same,glycan array binding signal (z-score),[8],-0.522
same,glycan array binding signal (z-score),[9],-0.709
same,glycan array binding signal (z-score),[10],-0.523
same,glycan array binding signal (z-score),Man(a1-6)Man,0.131
same,glycan array binding signal (z-score),Man(b1-4)GlcNAc,-0.298
same,glycan array binding signal (z-score),MurNAc(b1-4)GlcNAc,0.063
same,glycan array binding signal (z-score),Neu5Ac(a2-3)Gal,-0.898
same,glycan array binding signal (z-score),[11],0.407
same,glycan array binding signal (z-score),[12],-0.105
same,glycan array binding signal (z-score),[13],-0.951
same,glycan array binding signal (z-score),[14],0.406
same,glycan array binding signal (z-score),[15],-0.308
same,glycan array binding signal (z-score),[16],-0.676
same,glycan array binding signal (z-score),[17],0.438
same,glycan array binding signal (z-score),[18],-0.481
same,glycan array binding signal (z-score),[19],0.254
same,glycan array binding signal (z-score),[20],-0.728
same,glycan array binding signal (z-score),[21],-0.568
same,glycan array binding signal (z-score),[22],-0.236
same,glycan array binding signal (z-score),[23],0.643
same,glycan array binding signal (z-score),[24],-0.079
same,glycan array binding signal (z-score),[25],0.116
same,glycan array binding signal (z-score),[26],0.382
same,glycan array binding signal (z-score),[27],-0.593
same,glycan array binding signal (z-score),[28],-0.191
same,glycan array binding signal (z-score),[29],-0.223
same,glycan array binding signal (z-score),[30],0.002
same,glycan array binding signal (z-score),[31],-0.631
same,glycan array binding signal (z-score),[32],-0.071
same,glycan array binding signal (z-score),[33],-0.4
same,glycan array binding signal (z-score),Neu5Ac(a2-3)Gal(b1-4)Glc,1.19
same,glycan array binding signal (z-score),[34],-0.161
same,glycan array binding signal (z-score),[35],2.37
same,glycan array binding signal (z-score),[36],0.462
same,glycan array binding signal (z-score),[37],-0.278
same,glycan array binding signal (z-score),[38],-0.597
same,glycan array binding signal (z-score),[39],0.428

# Reformatted with tabs: part of the list above.
binder	measurement	setting	value
B1	glycan array binding signal (z-score)	[25]	0.116
same	glycan array binding signal (z-score)	[26]	0.382
